# Some of the results follow.
# B1: AT1G80310(18) (Arabidopsis thaliana), Q0WP36 (protein)
# chain: METTTTPLLPGDRSRCGWLRRRLRLKNPLSSELSGAVGDLGTFIPIVLTLTLVSNLDLSTTLIFTGFYNIATGLLFDIPMPVQPMKSIAAVAVSESPHLTPSQIAAAGASTAATLLLLGATGAMSFLYNIIPLPVVRGVQLSQGLQFAFTAIKYVRFNYDTATLKPSSSPRIWLGLDGLILALAALLFIILSTGSGNDREAEDGDLAETSSNESQSRRRRLRLLSSIPSALIVFALGLVLCFIRDPSIFKDLKFGPSKFHILRISWDDWKIGFLRAAIPQIPLSVLNSVIAVCKLSNDLFDKELSATTVSISVGVMNLIGCWFGAMPVCHGAGGLAGQYRFGARSGLSVIFLGIGKLIVGLVFGNSFVRILSQFPIGILGVLLLFAGIELAMASKDMNSKEDSFIMLVCAAVSMTGSSAALGFGCGVVLYLLLKLRTLDCSSVTLFSRSSDESQVDSEAAPRDV
# Key:
# Experiment in all cases: glycan array binding signal (z-score within array); higher = stronger binding
# Conditions in all cases: glycan notation: IUPAC condensed, linker removed
# [1] = target: Man(a1-2)Man(a1-3)[Man(a1-2)Man(a1-6)]Man
# In short: (§1)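 The Consortium for Functional Glycomics database supplied 3228 glycan arrays, of which those lacking an available protein sequence were dropped. The binding signal, a within-array Z-score, was averaged across arrays of the same protein sequence and across linkers. Negative scores can be read as non-binding.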
# [2] = target: Man(a1-2)Man(a1-3)[Man(a1-2)Man(a1-6)]Man(a1-6)[Man(a1-2)Man(a1-2)Man(a1-3)]Man
# In short: as §1
# [3] = target: Man(a1-2)Man(a1-3)[Man(a1-2)Man(a1-6)]Man(a1-6)[Man(a1-2)Man(a1-2)Man(a1-3)]Man(b1-4)GlcNAc(b1-4)GlcNAc
# In short: as §1
# [4] = target: Man(a1-2)Man(a1-3)[Man(a1-6)]Man(a1-6)[Man(a1-2)Man(a1-3)]Man(b1-4)GlcNAc(b1-4)GlcNAc
# In short: as §1
# [5] = target: Man(a1-2)Man(a1-6)[Man(a1-3)]Man(a1-6)[Man(a1-2)Man(a1-2)Man(a1-3)]Man
# In short: as §1
# [6] = target: Man(a1-2)Man(a1-6)[Man(a1-3)]Man(a1-6)[Man(a1-2)Man(a1-2)Man(a1-3)]Man(b1-4)GlcNAc(b1-4)GlcNAc
# In short: as §1
# Man(a1-3)[Man(a1-6)]Man = target: Man(a1-3)[Man(a1-6)]Man
# In short: as §1
# [7] = target: Man(a1-3)[Man(a1-6)]Man(a1-6)[Man(a1-2)Man(a1-3)]Man(b1-4)GlcNAc(b1-4)GlcNAc
# In short: as §1
# [8] = target: Man(a1-3)[Man(a1-6)]Man(a1-6)[Man(a1-3)]Man
# In short: as §1
# [9] = target: Man(a1-3)[Man(a1-6)]Man(a1-6)[Man(a1-3)]Man(b1-4)GlcNAc(b1-4)GlcNAc
# In short: as §1
# [10] = target: Man(a1-3)[Man(a1-6)]Man(b1-4)GlcNAc(b1-4)GlcNAc
# In short: as §1
# [11] = target: Man(a1-3)[Man(a1-6)]Man(b1-4)GlcNAc(b1-4)[Fuc(a1-6)]GlcNAc
# In short: as §1
# Man(a1-6)Man = target: Man(a1-6)Man
# In short: as §1
# Man(b1-4)GlcNAc = target: Man(b1-4)GlcNAc
# In short: as §1
# MurNAc(b1-4)GlcNAc = target: MurNAc(b1-4)GlcNAc
# In short: as §1
# Neu5Ac(a2-3)Gal = target: Neu5Ac(a2-3)Gal
# In short: as §1
# [12] = target: Neu5Ac(a2-3)Gal(b1-3)GalNAc
# In short: as §1
# [13] = target: Neu5Ac(a2-3)Gal(b1-3)GalNAc(b1-3)Gal(a1-4)Gal(b1-4)Glc
# In short: as §1
# [14] = target: Neu5Ac(a2-3)Gal(b1-3)GalNAc(b1-4)[Neu5Ac(a2-3)]Gal(b1-4)Glc
# In short: as §1
# [15] = target: Neu5Ac(a2-3)Gal(b1-3)GalNAc(b1-4)[Neu5Ac(a2-8)Neu5Ac(a2-3)]Gal(b1-4)Glc
# In short: as §1
# [16] = target: Neu5Ac(a2-3)Gal(b1-3)GalNAc6S
# In short: as §1
# [17] = target: Neu5Ac(a2-3)Gal(b1-3)GlcNAc
# In short: as §1
# [18] = target: Neu5Ac(a2-3)Gal(b1-3)GlcNAc(b1-2)Man
# In short: as §1
# [19] = target: Neu5Ac(a2-3)Gal(b1-3)GlcNAc(b1-2)Man(a1-3)[GlcNAc(b1-4)][Neu5Ac(a2-3)Gal(b1-3)GlcNAc(b1-2)Man(a1-6)]Man(b1-4)GlcNAc(b1-4)GlcNAc
# In short: as §1
# [20] = target: Neu5Ac(a2-3)Gal(b1-3)GlcNAc(b1-2)Man(a1-3)[Neu5Ac(a2-3)Gal(b1-3)GlcNAc(b1-2)Man(a1-6)]Man(b1-4)GlcNAc(b1-4)GlcNAc
# In short: as §1
# [21] = target: Neu5Ac(a2-3)Gal(b1-3)GlcNAc(b1-3)Gal(b1-3)GlcNAc
# In short: as §1
# [22] = target: Neu5Ac(a2-3)Gal(b1-3)GlcNAc(b1-3)Gal(b1-4)GlcNAc
# In short: as §1
# [23] = target: Neu5Ac(a2-3)Gal(b1-3)GlcNAc(b1-3)GalNAc
# In short: as §1
# [24] = target: Neu5Ac(a2-3)Gal(b1-3)GlcNAc(b1-4)Gal(b1-4)Glc
# In short: as §1
# [25] = target: Neu5Ac(a2-3)Gal(b1-3)GlcNAc(b1-6)GalNAc
# In short: as §1
# [26] = target: Neu5Ac(a2-3)Gal(b1-3)GlcNAc6S
# In short: as §1
# [27] = target: Neu5Ac(a2-3)Gal(b1-3)[Fuc(a1-4)]GlcNAc
# In short: as §1
# [28] = target: Neu5Ac(a2-3)Gal(b1-3)[Fuc(a1-4)]GlcNAc(b1-3)Gal(b1-3)[Fuc(a1-4)]GlcNAc
# In short: as §1
# [29] = target: Neu5Ac(a2-3)Gal(b1-3)[Fuc(a1-4)]GlcNAc(b1-3)Gal(b1-4)[Fuc(a1-3)]GlcNAc
# In short: as §1
# [30] = target: Neu5Ac(a2-3)Gal(b1-3)[GlcNAc(b1-6)]GalNAc
# In short: as §1
# [31] = target: Neu5Ac(a2-3)Gal(b1-3)[Neu5Ac(a2-6)]GalNAc
# In short: as §1
# [32] = target: Neu5Ac(a2-3)Gal(b1-3)[Neu5Ac(a2-6)]GlcNAc(b1-3)[Fuc(a1-3)[Gal(b1-4)]GlcNAc(b1-6)]Gal(b1-4)Glc
# In short: as §1
binder,measurement,setting,value
B1,glycan array binding signal (z-score),[1],-0.796
same,glycan array binding signal (z-score),[2],0.822
same,glycan array binding signal (z-score),[3],0.506
same,glycan array binding signal (z-score),[4],-0.023
same,glycan array binding signal (z-score),[5],-0.243
same,glycan array binding signal (z-score),[6],0.024
same,glycan array binding signal (z-score),Man(a1-3)[Man(a1-6)]Man,-0.856
same,glycan array binding signal (z-score),[7],-0.585
same,glycan array binding signal (z-score),[8],-0.763
same,glycan array binding signal (z-score),[9],-0.217
same,glycan array binding signal (z-score),[10],-0.373
same,glycan array binding signal (z-score),[11],-0.517
same,glycan array binding signal (z-score),Man(a1-6)Man,0.072
same,glycan array binding signal (z-score),Man(b1-4)GlcNAc,-0.679
same,glycan array binding signal (z-score),MurNAc(b1-4)GlcNAc,-0.796
same,glycan array binding signal (z-score),Neu5Ac(a2-3)Gal,-0.584
same,glycan array binding signal (z-score),[12],0.654
same,glycan array binding signal (z-score),[13],0.8
same,glycan array binding signal (z-score),[14],-0.383
same,glycan array binding signal (z-score),[15],4.16
same,glycan array binding signal (z-score),[16],-0.477
same,glycan array binding signal (z-score),[17],-0.775
same,glycan array binding signal (z-score),[18],-0.911
same,glycan array binding signal (z-score),[19],0.81
same,glycan array binding signal (z-score),[20],-0.7
same,glycan array binding signal (z-score),[21],-0.233
same,glycan array binding signal (z-score),[22],-1.01
same,glycan array binding signal (z-score),[23],0.422
same,glycan array binding signal (z-score),[24],-0.825
same,glycan array binding signal (z-score),[25],-0.907
same,glycan array binding signal (z-score),[26],-0.894
same,glycan array binding signal (z-score),[27],-0.423
same,glycan array binding signal (z-score),[28],1.52
same,glycan array binding signal (z-score),[29],-0.599
same,glycan array binding signal (z-score),[30],-1.06
same,glycan array binding signal (z-score),[31],-0.455
same,glycan array binding signal (z-score),[32],-0.787

# 2 records drawn at random from those above, as already listed:
binder,measurement,setting,value
B1,glycan array binding signal (z-score),[27],-0.423
same,glycan array binding signal (z-score),[17],-0.775
